Laboratory results: article PMC3859662

Legend:
[1] = target: T1, necdin (full-length, yeast two-hybrid fusion) (mouse) (UniProt P25233); assay: two-hybrid; deletion mapping: deleted cystin constructs (prey) co-transformed with full-length necdin (bait); selective SD/-Ade-His-Leu-Trp plates
T1 sequence: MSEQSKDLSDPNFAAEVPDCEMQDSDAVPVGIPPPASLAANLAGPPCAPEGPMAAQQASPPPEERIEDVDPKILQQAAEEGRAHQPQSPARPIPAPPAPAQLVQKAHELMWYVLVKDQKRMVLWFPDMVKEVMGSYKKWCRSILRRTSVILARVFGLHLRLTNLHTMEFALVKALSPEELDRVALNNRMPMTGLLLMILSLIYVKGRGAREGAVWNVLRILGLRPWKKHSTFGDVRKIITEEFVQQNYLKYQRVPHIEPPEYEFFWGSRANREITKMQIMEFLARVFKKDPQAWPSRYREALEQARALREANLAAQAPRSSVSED

GST alone = assay: pull-down; pCMV-GST-cystin (or GST alone) and pCMV-myc-necdin co-transfected into COS-7 cells; lysate incubated with immobilized glutathione beads overnight at 4 °C; eluted with 100 mM glutathione; blot with myc antibody

- binding [1]: binds
Molecule: carboxy terminal fragment of cystin (mouse) (domain or fragment)

- binding [1]: no binding
Molecule: cystin-C25 (cystin with the C-terminal 25 amino acids deleted) (mouse) (domain or fragment)

- binding (GST alone): no binding
B1: myc-necdin (full-length necdin in pCMV-myc) (protein, UniProt P25233 1-325)
chain: T1 sequence

No constants are given. Whether binding was seen depends on the method and setting. For part of these data: Binding can be weak; no strength is given. Tags and fused reporters may be left off the sequences shown. For part of these data: In cells and extracts the contact can be indirect. Each block holds one molecule with its values, some of them ahead of it.
